Patent US20210137935A1, “CORTICOTROPIN RELEASING FACTOR RECEPTOR ANTAGONISTS” (Spruce Biosciences, Inc., priority 2017, published 2021)
The name of at least one read-out is uncertain.

Tests used:
[1] = Study 2 Part A: multiple-dose (14 days) pharmacokinetics in healthy adult volunteers; format: in vivo, human; conditions: for Vss/F / WT-norm Vss/F / Vz/F: Day 14, geometric mean; for WT-norm Vss/F: weight normalized
Experimental: The 2-part multiple-dose study, Study 2, determined the safety and tolerability of repeated daily doses of Compound 1 and investigated the effects on biomarkers of relevance for the treatment of alcohol dependence.
PK were also evaluated in the multiple-dose, dose-escalation study, Study 2. In Part A of the study, subjects were divided into 3 cohorts and received 50, 150, or 200 mg Compound 1 or placebo for 14 consecutive days (at least 6 subjects received Compound 1 and 2 subjects received placebo in each cohort). […] All dosing occurred in the fed state. An assessment of diurnal cortisol levels, plus when under conditions of glucose clamp, were also carried out both prior to and during the dosing period.
Consistent with the single-dose study (Study 1), concentrations appeared to decline in a bi-exponential manner, characterized by a rapid decrease within the first 24 hours. […] The Tmax appeared to be consistent across doses. Overall half-lives, weight normalized CL/F and V/F were consistent for 150 and 200 mg. However, the values for these latter 2 parameters were almost doubled at the 50-mg dose level. Variability (CV %) for apparent clearance and volume of distribution were large and not reduced with weight-normalization.
Table 8 presents the results of the dose proportionality assessment for the AUC0-24 and Cmax over the tested dose range.

[2] = Study 1: single-escalating oral dose pharmacokinetics in healthy adult subjects; format: in vivo, human; conditions: geometric mean
Experimental: Study 1 was the first-in-human study that investigated the safety, tolerability, and PK of single-escalating doses of Compound 1, given orally, to healthy adult subjects. […] The data from this study were used for the selection of doses for Study 2.
In Study 1, Compound 1 was administered to healthy adult subjects as a single PO dose of 2, 10, 50, 150, 400, or 800 mg in the fed state and 150 mg in the fasted state. Absorption occurred moderately late, achieving peak Cmax between 4 to 6 hours following dosing in the fed state.
When Compound 1 was given in the fed state, median time to reach maximum plasma concentration (Tmax) occurred between 4 and 6 hours.
As part of this single-dose escalation study, a food effect PK investigation was performed to examine Compound 1 exposures in both the fed and fasted states at the 150-mg dose level. A total of 6 subjects were administered 150 mg Compound 1 in each of these 2 dosing groups. Of these 6 subjects, 4 subjects received Compound 1 at the same dose in both fed and fasted states. […] Table 6 provides a summary of the PK parameters at the 150-mg dose level under both fed and fasted state conditions.
PK parameters AUC0-∞ and Cmax were analyzed separately for dose proportionality for Compound 1 from 50 to 800 mg when administered in the fed state. […] Dose proportionality across administered doses in the fed state could not be concluded on the basis of AUC0-∞ or Cmax.

[3] = single oral dose 150 mg, fasted

CCC(CC)c1cc(C)nc2c(-c3sc(N4CCOCC4)nc3Cl)c(C)nn12 [Compound 1, 3-(4-Chloro-2-(morpholin-4-yl)thiazol-5-yl)-7-(1-ethylpropyl)-2,5-dimethylpyrazolo(1,5-a)pyrimidine]
Vss/F ([1]; 50 mg daily): 12900 L | WT-norm Vss/F ([1]; 50 mg daily): 204 L/kg | Vss/F ([1]; 150 mg daily): 6170 L | Vz/F ([1]; 150 mg daily): 17600 L | WT-norm Vss/F ([1]; 150 mg daily): 86.5 L/kg | Vss/F ([1]; 200 mg daily): 5080 L | Vz/F ([1]; 200 mg daily): 16300 L | WT-norm Vss/F ([1]; 200 mg daily): 77.4 L/kg | time to Cmax, median ([1]; following oral dosing, overall): 5 h | Vss/F ([2]; single oral dose 50 mg, fed): 8080 L | Vz/F ([2]; single oral dose 50 mg, fed): 13500 L | Vss/F [2, 3]: 25200 L | Vz/F [2, 3]: 25100 L | Vss/F ([2]; single oral dose 150 mg, fed): 4600 L | Vz/F ([2]; single oral dose 150 mg, fed): 6620 L | Vss/F ([2]; single oral dose 400 mg, fed): 6580 L | Vz/F ([2]; single oral dose 400 mg, fed): 9890 L | Vss/F ([2]; single oral dose 800 mg, fed): 6820 L | Vz/F ([2]; single oral dose 800 mg, fed): 9970 L
